For one compound, non-specific binding results are on record in PMC3124131 (Frontiers in Pharmacology, 2010).

This series concerns [^125I]-ICYP binding sites in rat lung membranes (β1- and β2-adrenoceptors). Nature of the series: [125I]-ICYP competition radioligand binding in rat lung membranes. The following applies: [125I]-ICYP concentration 82 ± 2 pM (n = 37). The protocol:
All experiments were performed under the German legislation for the care of experimental animals. Adult Wistar rats of either gender were obtained from the breeding facility at the University of Essen Medical School. They were killed by decapitation under light ether anesthesia. Lung and bladder were rapidly removed, freed from surrounding connective tissues and rapidly frozen in liquid nitrogen. Thereafter, they were stored until use for up to 3 months at −70°C. On the day of the experiment, the tissues were thawed in ice-cold preparation buffer (50 mM Tris, 10 mM MgCl2, 0.5 mM EDTA, pH 7.5), minced with scissors and homogenized with an Ultra-Turrax (Janke & Kunkel, Staufen, Germany) for 10 s at full speed and then twice for 20 s each at 2/3 speed. The homogenates were filtered through medical gauze and then centrifuged for 20 min at 50,000 g at 4°C. The pellets were re-suspended in buffer, re-homogenized shortly (10 s at full speed) and washed by an additional centrifugation step. The final pellets were re-suspended and re-homogenized in binding buffer (see below).
Radioligand binding assays were performed as previously described (Goepel et al., [1997]) with minor modifications. […] Filters were washed with approximately 20 ml ice-cold incubation buffer.
Saturation binding data were analyzed by fitting rectangular hyperbolic functions to the experimental data. […]

The structures appear in SMILES notation. Where “and” joins values, the source holds several entries; their conditions need not be identical. Equal values may be shown once.

In the case of `CC(C)(C)NCC(O)COc1cccc2[nH]c(C#N)c([125I])c12` (stereo not shown) [[^125I]-ICYP, [^125I]-iodocyanopindolol], the non-specific binding is 24 ± 1% and 24%.
